Log data for nine compounds are collected here from the supplement of paper PMC7024190.

The other results are listed elsewhere or left out. This data set is noisy: repeats of one test often differ as much as different tests do.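 Human embryonic kidney cells were transiently transfected with a plasmid bearing a Renilla luciferase gene under the HSV-TK promoter. This first-round screen tests roughly ten thousand compounds for ones that increase reporter output.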

The test deals with HEK 293FT. The test can be described thus: log relative Renilla luciferase luminescence (reporter expression vs reference, reference not stated) (log (base not stated)); higher = higher recombinant reporter expression. As to conditions: 10 µM; time after transfection 48 h. As to the method:
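HEK 293FT cells transiently transfected with pRL-TK (Renilla luciferase) were treated with compounds at 10 uM and luminescence was read about 42 h later. Values are log relative Renilla luminescence (log base and reference not stated). Single-pass screen; 2080 natural products library.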
Turning to `Cc1cc(O)c2c(c1)C(=O)c1cccc(O[C@@H]3O[C@H](CO)[C@@H](O)[C@H](O)[C@H]3O)c1C2=O` [Chrysophanol 8-O-glucoside], the log is -0.119.

For `COc1cc(OC)c2c(c1)O[C@@]1(c3ccc(OC)c(O)c3)[C@H](c3ccccc3)[C@@H](C(=O)N(C)C)[C@@H](O)[C@@]21O` [3'-Hydroxyrocaglamide], the log was -1.18.

Regarding `O=Cc1ccc(O)c(O)c1` [3,4-Dihydroxybenzaldehyde], the log is -0.619.

`C[C@@H]1CC[C@@]23CC[C@]4(C)[C@@](C=CC5[C@@]6(C)CC[C@H](O)C(C)(C)C6CC[C@]54C)(OC2=O)C3[C@H]1C` (some centres undefined) [3-Hydroxy-11-ursen-28,13-olide]: the log is -0.321.

As to `C=C1CC[C@H]2C(C)(C)CCC[C@]2(C)[C@H]1/C=C/C(C)=O` [15,16-Dinor-8(17),11-labdadien-13-one], the log turned out to be 0.164.

Turning to `C=C(C)[C@H](/C=C/[C@@H](C)[C@H]1CC[C@H]2[C@@H]3CC=C4C[C@@H](OC(C)=O)CC[C@]4(C)[C@H]3CC[C@]12C)CC` [22-Dehydroclerosteryl acetate], the log was found to be 0.0031.

With `COc1ccc(C[C@H]2C(=O)OC[C@@H]2[C@@H](OC(C)=O)c2ccc(OC)c(OC)c2)cc1OC` [5-Acetoxymatairesinol dimethyl ether], the log amounted to 0.74.

Consider `C[C@H]1O[C@@H](Oc2c(-c3cc(O)c(O)c(O)c3)oc3cc(O)cc(O)c3c2=O)[C@@H](O)[C@@H](O)[C@@H]1O` [Myricitrin], for which the log is -0.51.

In the case of `COc1ccc([C@@H]2CC(=O)c3c(O)cc(O[C@@H]4O[C@H](CO[C@@H]5O[C@@H](C)[C@H](O)[C@@H](O)[C@H]5O)[C@@H](O)[C@H](O)[C@H]4O)cc3O2)cc1O` [Hesperidin], the log is -0.15.
